Measurements from PubChem BioAssay AID1259354 (Paczesny and Yang Labs, IUPUI and University of Michigan, 2018).
Out of some 78,000 compounds screened, about 1,800 (2.3%) were called active. Inconclusive results, whose numbers are uncertain, are shown with a selection of clear calls. Cut-off read from the data, not from the text of the source: active = inhibition above about 30%; inconclusive = mostly about 10% to 28%; inactive = weaker than that.

By UniProt entry, the sequences of proteins in these tests, tags left out. Where a name states a change or a piece, a line headed by the entry shows the natural chain unless it says otherwise.
UniProt Q01638: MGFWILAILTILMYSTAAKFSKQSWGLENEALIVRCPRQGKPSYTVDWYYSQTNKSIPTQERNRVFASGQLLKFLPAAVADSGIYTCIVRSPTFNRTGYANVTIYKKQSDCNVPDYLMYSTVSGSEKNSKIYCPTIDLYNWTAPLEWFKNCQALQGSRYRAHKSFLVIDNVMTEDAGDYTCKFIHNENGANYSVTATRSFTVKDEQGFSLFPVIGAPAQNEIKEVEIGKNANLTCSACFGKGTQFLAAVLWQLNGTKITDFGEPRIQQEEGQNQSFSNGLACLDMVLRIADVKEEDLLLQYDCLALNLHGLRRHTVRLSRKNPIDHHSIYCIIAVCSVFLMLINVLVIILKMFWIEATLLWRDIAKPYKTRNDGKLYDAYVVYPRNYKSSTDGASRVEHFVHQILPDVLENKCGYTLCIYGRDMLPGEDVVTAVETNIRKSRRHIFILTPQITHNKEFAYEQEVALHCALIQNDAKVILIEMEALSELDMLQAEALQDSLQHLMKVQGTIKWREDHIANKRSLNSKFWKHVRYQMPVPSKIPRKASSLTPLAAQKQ

target: Interleukin-1 receptor-like 1 (Homo sapiens) (UniProt Q01638); assay: blocks human ST2 binding to IL-33, primary screen, biochemical, AlphaLISA (AID 1259354); conditions: AlphaLISA ST2-Fc/biotin-IL-33 interaction, 1 h; at 17 µM, stronger effect = higher value

Structure (SMILES)	inhibition
N#C/C(=C\c1ccc(O)c(O)c1)C(=O)NCCc1ccccc1	inconclusive: 21%
Cc1ccccc1CSCC(=O)Nc1c(C)n(C)n(-c2ccccc2)c1=O	inactive
O=C1CCCC2=C1C(c1ccc3c(c1)OCO3)c1c(nc(SCc3ccccc3)[nH]c1=O)N2 (configuration not stated)	inactive
O=[N+]([O-])c1ccc2nc(CSc3nnc4sc5ccccc5n34)[nH]c2c1	inconclusive: 23%
O=C(Nc1cccc(Cl)c1)c1noc2c1CCC2	inconclusive: 17%
COc1ccc(C2=NN(C(=O)CCC(=O)O)C(c3ccc(Cl)cc3Cl)C2)cc1 (configuration not stated)	inactive
COc1ccc(N2C(=O)C3CCCN3C2c2ccc(N(C)C)cc2)cc1Cl (configuration not stated)	inconclusive: 12%
O=C(c1cccn2c(=O)c3c4c(sc3nc12)CCCC4)N1CCN(c2ncccn2)CC1	inconclusive: 10%
Cc1ccc(N2CC(NC(=O)C3CCCC3)CC2=O)cc1 (configuration not stated)	inconclusive: 23%
CN1[C@H]2CC[C@@H]1CN(C(=O)COCC(F)(F)C(F)F)CC2	inconclusive: 11%
Cc1n[nH]c(C)c1CCCN(C)c1cc(N(C)C)ncn1	inactive
O=C(Nc1ccc(Oc2ccccc2)cc1)O[C@@H]1CO[C@H]2[C@@H]1OC[C@@H]2NC(=O)c1ccc(C(F)(F)F)cc1	inconclusive: 13%
O=C(O)c1ccc(NC(=O)c2cc(S(=O)(=O)N3CCOCC3)cs2)cc1	inactive
CCCSc1ncc(CN2CCC(CN)C2)cn1 (configuration not stated)	inconclusive: 10%
COc1ccc(CNC(=O)[C@@H]2Cc3nc[nH]c3CN2Cc2ccc(OC)c3ccccc23)cc1	inactive
Cc1ccccc1N=C(NN)c1ccccn1	inactive
CC1=C(C(=O)Nc2cccnc2)C(c2ccc(F)cc2)n2nc(SCc3ccccc3)nc2N1 (configuration not stated)	inconclusive: 22%
CC1=CC(C)(C)Nc2cc(CN(C)C)c(O)cc21	inconclusive: 29%
COc1ccccc1N1CCN(c2ncnc3c2cnn3-c2ccc(C)cc2C)CC1	inconclusive: 13%
FC(F)(F)C1=Nc2ccccc2N=C(c2cccs2)C1	inconclusive: 13%
O=C(NC1CCC(NC(=O)c2cccc(Cl)c2)CC1)c1cccc(Cl)c1 (configuration not stated)	inconclusive: 20%
CCOC(=O)c1cnc2c(C)c(Cl)ccc2c1Nc1ccccc1	inactive
O=C(Nc1c2c(nn1-c1ccc(Cl)cc1)CSC2)c1cccs1	inactive
O=c1ccc(=O)n(CCNC2CCN(Cc3ccccc3)CC2)[nH]1	inactive

Pulled one by one from above, 3 records:
Structure (SMILES)	inhibition
COc1ccccc1N1CCN(c2ncnc3c2cnn3-c2ccc(C)cc2C)CC1	inconclusive: 13%
CN1[C@H]2CC[C@@H]1CN(C(=O)COCC(F)(F)C(F)F)CC2	inconclusive: 11%
FC(F)(F)C1=Nc2ccccc2N=C(c2cccs2)C1	inconclusive: 13%

More compounds.

Structure (SMILES)	inhibition
COc1ccc(-c2nnc(NC(=O)Nc3ccc(C)c(C)c3)s2)cc1OC	inactive
CC1(C)Cc2c(c(-c3ccccc3)nc3oc(C(=O)c4ccccc4)c(N)c23)CO1	inconclusive: 11%
Cc1c(O)ccc2c(=O)c(-c3ccccc3)c(C(F)(F)F)oc12	inactive
CCC(C)NC(=O)c1cc(Sc2nnc(C)s2)nc2ccccc12 (configuration not stated)	inconclusive: 15%
COc1cccc(Cn2c(CNS(=O)(=O)c3ccc(CC(C)C)cc3)nc3cccnc32)c1	inactive
O=C(NC1CCCC1)C1CCC(CNS(=O)(=O)c2cccc3nsnc23)CC1 (configuration not stated)	inactive
Cc1ccc(-c2ccc(/C=C3/C(=O)NN(c4ccc(F)cc4)C3=O)o2)c([N+](=O)[O-])c1C	active: 42%
c1ccc(Nc2ncnc3c2oc2ccccc23)cc1	inconclusive: 13%
COc1cccc(C(=O)Nc2nc(C(F)(F)F)c(-c3ccccn3)s2)c1	inactive
CCOc1ccc2sc(C=NCc3ccc(F)cc3)c(O)c2c1	inconclusive: 27%
O=C(Nc1nc(-c2ccc(Cl)cc2)cs1)c1cccnc1	inconclusive: 12%
Cc1oc(-c2cccs2)nc1CN1CCCC(C(=O)NC2CCCCC2)C1 (configuration not stated)	inconclusive: 14%
C=CCn1cc(CN2CCn3nc(-c4nc5ccccc5n4C)cc3C2)c(C)n1	inconclusive: 20%
CC(=O)c1ccc(NC(=O)c2cc(S(=O)(=O)N3CCCC3)c(Cl)cc2Cl)cc1	inconclusive: 14%
O=[N+]([O-])c1ccc(O)c(CN2CCCCC2)c1	inactive
Cc1nc2ccccc2c2c1C(=O)N(c1ccc(Cl)cc1F)C2=O	inconclusive: 19%
COC(=O)c1sc2ccccc2c1NC(=O)c1ccc(Br)s1	inactive
Brc1ccc(-c2csc(N3CCOCC3)n2)cc1	inconclusive: 26%
O=C(c1cc(-c2cccs2)on1)N1CCN(c2ccc(F)cc2)CC1	inconclusive: 21%
Fc1cccc(-c2nnc3n2N=C(c2ccc(Cl)s2)CS3)c1	active: 30%
C=CCn1nc(C(=O)N2CCSCC2)c2c1CCC(NCc1cc(-c3ccccc3)on1)C2 (configuration not stated)	inconclusive: 10%
CCn1cc(C(=O)NCCN(C)C)c2cc(OC)c(OC)cc2c1=O	inconclusive: 16%
CC(C)(C)c1ccc(-c2nnc(NC(=O)c3ccc4c(c3)OCO4)s2)cc1	inactive
